{
  "sequences": {"note": "Sequences of proteins named here, by UniProt entry; tags and fusion partners are left off.", "UniProt Q86U86": "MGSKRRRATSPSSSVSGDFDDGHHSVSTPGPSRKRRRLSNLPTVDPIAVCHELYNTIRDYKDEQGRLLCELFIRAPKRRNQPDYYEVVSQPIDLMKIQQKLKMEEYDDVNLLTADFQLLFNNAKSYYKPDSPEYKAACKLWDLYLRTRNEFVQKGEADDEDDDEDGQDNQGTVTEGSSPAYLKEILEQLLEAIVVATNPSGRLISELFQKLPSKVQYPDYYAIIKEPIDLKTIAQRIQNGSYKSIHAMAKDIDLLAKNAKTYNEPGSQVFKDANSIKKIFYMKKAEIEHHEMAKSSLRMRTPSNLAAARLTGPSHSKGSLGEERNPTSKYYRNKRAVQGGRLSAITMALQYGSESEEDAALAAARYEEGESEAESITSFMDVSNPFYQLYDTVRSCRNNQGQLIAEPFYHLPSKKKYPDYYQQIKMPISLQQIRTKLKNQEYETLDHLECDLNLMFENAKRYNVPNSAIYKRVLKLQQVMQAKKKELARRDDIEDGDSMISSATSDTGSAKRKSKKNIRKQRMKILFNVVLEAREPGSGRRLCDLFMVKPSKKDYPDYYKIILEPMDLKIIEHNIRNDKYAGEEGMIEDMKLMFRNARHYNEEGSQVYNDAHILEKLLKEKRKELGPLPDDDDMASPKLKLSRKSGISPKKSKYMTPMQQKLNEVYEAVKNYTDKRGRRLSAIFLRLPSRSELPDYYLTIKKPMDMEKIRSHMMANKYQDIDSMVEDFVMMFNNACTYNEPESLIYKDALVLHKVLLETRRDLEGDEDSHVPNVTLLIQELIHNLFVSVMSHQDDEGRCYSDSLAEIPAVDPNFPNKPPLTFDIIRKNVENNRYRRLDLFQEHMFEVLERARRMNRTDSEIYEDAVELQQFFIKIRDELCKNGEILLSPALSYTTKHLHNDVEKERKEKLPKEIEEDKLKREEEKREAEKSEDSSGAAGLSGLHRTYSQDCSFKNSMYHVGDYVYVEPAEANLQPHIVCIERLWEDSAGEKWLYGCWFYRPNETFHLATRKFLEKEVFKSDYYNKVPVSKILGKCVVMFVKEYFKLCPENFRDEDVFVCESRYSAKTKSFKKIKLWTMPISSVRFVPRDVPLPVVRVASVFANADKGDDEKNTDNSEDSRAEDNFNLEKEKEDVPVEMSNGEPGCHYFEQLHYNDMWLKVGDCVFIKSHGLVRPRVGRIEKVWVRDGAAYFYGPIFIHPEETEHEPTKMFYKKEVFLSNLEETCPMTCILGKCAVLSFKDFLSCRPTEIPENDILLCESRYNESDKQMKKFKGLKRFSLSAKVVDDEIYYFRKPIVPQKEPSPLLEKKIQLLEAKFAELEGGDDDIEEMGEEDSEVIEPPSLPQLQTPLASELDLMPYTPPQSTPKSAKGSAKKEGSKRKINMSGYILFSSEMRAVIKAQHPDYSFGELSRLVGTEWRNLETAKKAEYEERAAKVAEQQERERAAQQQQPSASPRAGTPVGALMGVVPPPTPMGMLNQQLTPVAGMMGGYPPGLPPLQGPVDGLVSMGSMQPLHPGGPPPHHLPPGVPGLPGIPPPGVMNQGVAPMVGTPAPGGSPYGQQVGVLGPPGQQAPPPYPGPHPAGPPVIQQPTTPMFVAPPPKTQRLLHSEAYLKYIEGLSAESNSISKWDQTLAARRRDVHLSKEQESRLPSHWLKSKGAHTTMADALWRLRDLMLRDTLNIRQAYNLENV"},
  "source": "paper PMC8321896",
  "molecular_target": "T1, NRF2 (human (endogenous in DU-145)) (UniProt Q16236)",
  "T1 sequence": "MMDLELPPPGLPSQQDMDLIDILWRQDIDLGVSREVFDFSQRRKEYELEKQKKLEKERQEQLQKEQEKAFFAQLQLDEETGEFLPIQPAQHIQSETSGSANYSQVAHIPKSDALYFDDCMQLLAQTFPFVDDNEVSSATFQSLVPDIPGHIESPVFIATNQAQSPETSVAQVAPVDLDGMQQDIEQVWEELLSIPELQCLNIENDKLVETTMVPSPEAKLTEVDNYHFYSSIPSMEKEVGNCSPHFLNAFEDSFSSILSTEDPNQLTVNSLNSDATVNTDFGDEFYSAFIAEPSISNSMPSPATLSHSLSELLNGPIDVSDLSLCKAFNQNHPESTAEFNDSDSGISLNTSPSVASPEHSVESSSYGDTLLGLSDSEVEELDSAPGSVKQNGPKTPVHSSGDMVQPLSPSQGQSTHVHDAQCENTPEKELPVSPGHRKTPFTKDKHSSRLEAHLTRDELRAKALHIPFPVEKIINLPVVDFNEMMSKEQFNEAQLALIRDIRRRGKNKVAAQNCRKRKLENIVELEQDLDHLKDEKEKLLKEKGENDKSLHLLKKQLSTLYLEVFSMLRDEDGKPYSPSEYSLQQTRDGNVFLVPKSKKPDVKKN",
  "test": "re-ChIP (sequential chromatin immunoprecipitation); formaldehyde cross-linked soluble chromatin precipitated with a first antibody (anti-MUC1-C or anti-NRF2), then reprecipitated with a second antibody or control IgG; read out by qPCR of promoter or intron regions (PBRM1, ARID2, BRD7, SLC7A11, G6PD); DU-145 and LNCaP-AI cells",
  "note": "These are yes or no findings as the source states them, for the method shown. Some binding calls cover weakened binding; strength is not graded here.",
  "data": [
    {"substance": "PBRM1 (from UniProt Q86U86 1-1689)", "values": [
      {"measurement": "binding", "value": "binds"}
    ]}
  ]
}
